Source: the supplement of paper PMC10849652
The other results are listed elsewhere or left out.

Sequences of proteins named here, by UniProt entry; tags and fusion partners are left off. A change or cut given only in a name is not applied to a line headed by its entry.
UniProt Q96FQ6: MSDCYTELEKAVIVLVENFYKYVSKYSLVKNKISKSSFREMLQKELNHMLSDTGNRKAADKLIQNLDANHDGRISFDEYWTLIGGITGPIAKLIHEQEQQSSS
UniProt Q13296: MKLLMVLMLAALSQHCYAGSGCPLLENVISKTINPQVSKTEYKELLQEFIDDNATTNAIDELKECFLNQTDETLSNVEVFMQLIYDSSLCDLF
UniProt O95104: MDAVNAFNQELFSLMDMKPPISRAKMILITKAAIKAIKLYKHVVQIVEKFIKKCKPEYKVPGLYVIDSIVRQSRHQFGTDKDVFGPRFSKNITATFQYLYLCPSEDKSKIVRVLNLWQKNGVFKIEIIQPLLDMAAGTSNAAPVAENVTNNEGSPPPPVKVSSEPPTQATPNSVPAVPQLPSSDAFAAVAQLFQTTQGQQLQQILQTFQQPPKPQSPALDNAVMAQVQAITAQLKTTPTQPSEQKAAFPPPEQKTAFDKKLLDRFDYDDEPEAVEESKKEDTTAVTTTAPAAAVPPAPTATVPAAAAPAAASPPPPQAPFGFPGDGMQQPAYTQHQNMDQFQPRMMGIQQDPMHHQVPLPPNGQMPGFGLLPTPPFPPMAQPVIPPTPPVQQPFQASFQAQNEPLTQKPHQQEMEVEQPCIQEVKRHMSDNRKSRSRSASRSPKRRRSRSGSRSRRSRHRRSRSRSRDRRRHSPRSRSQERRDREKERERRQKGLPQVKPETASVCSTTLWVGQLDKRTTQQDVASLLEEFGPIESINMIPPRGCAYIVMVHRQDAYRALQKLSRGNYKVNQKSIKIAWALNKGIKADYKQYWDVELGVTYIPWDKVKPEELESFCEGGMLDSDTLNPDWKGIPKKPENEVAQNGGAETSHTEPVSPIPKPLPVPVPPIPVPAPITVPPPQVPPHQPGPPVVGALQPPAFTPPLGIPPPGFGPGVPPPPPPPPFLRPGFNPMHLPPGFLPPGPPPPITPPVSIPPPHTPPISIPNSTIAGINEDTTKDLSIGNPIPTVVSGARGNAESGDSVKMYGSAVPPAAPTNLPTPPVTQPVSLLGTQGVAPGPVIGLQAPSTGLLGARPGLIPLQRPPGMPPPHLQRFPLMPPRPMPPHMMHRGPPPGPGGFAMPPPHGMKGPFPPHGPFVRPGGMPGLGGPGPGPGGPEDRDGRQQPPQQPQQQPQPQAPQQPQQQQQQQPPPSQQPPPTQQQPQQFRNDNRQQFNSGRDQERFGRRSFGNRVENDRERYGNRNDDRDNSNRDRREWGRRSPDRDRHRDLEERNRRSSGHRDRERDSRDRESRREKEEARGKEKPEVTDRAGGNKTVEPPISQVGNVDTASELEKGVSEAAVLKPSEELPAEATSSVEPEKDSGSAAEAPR
UniProt O95197: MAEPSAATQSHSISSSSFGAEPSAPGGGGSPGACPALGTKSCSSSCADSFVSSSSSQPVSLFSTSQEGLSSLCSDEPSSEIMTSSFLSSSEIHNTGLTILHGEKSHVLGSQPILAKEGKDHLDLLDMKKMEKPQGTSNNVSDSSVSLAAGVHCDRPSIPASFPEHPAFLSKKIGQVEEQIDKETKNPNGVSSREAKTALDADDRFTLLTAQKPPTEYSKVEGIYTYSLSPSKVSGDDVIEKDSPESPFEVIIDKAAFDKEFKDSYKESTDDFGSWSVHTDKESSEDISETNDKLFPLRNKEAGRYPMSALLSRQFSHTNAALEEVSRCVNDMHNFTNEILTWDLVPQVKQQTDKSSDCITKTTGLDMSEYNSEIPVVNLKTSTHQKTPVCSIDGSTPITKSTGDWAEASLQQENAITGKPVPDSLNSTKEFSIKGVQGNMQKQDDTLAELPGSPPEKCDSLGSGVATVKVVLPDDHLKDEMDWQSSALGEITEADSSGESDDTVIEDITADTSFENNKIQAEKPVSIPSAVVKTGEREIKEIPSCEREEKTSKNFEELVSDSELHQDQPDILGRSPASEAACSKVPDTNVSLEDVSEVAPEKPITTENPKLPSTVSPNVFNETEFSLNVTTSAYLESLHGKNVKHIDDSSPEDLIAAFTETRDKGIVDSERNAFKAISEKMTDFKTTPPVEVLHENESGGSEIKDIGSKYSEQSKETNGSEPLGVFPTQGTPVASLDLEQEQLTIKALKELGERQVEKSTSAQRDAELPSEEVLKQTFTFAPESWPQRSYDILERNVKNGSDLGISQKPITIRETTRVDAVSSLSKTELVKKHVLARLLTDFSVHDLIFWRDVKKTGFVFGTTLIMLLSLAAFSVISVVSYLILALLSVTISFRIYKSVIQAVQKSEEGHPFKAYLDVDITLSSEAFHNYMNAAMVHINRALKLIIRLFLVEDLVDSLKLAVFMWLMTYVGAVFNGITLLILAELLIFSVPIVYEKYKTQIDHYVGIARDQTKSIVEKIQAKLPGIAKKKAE
UniProt O95969: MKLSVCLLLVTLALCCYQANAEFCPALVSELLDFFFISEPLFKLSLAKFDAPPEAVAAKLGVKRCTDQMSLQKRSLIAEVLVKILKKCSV
UniProt Q5VUM1: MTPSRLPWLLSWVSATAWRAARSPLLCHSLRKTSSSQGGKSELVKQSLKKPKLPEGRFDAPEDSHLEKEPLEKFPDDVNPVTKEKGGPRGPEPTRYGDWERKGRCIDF
UniProt Q9Y3A4: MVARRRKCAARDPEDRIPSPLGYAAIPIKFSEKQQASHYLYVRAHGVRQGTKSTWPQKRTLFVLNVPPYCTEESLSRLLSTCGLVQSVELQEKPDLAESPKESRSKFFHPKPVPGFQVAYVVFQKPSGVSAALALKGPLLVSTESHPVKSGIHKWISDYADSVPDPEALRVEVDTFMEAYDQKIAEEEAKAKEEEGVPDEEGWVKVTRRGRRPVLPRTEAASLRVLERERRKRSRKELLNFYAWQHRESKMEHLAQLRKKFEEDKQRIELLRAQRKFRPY
UniProt P29034: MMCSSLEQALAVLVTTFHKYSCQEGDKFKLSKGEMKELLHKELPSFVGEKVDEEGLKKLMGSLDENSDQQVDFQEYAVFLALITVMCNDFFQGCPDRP
UniProt O75446: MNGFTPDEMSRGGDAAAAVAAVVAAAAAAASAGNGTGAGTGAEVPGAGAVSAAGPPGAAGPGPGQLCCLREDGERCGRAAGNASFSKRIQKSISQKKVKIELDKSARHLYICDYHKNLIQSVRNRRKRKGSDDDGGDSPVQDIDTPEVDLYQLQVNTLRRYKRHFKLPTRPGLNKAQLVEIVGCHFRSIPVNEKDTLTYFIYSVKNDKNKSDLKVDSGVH
UniProt Q7L3V2: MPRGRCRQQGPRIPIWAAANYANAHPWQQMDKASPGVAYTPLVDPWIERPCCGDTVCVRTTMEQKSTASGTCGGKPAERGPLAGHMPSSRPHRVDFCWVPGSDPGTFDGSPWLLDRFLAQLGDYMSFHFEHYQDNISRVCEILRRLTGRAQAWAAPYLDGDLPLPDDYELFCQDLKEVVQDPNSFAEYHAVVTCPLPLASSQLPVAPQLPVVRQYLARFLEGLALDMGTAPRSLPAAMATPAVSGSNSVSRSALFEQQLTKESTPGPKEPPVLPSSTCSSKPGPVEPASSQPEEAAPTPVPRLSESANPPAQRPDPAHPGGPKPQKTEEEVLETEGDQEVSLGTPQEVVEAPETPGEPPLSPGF

Columns and labels:
Assay in all cases: log2 fold change, soluble protein after heating vs DMSO (PISA); higher = thermal stabilisation; K562 cells, 10 uM, 30 min; active = over 0.2 and 3.5 SD of the protein, either way, in both replicates (recomputed)
bafetinib = compound: Cc1ccc(NC(=O)c2ccc(CN3CC[C@H](N(C)C)C3)c(C(F)(F)F)c2)cc1Nc1nccc(-c2cncnc2)n1 [bafetinib]
In short: (§1)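 Thermal stability values are relative to control samples and come from duplicates. They are expressed as log2 fold changes. For measurement, K562 cells (2×10^6 cells/mL) received 10 μM compound for 30 min, and aliquots were heated for 3 min over 48°C-58°C, pooled, and extracted at 4°C in PBS with 0.5% NP-40. Soluble protein, the supernatant after 21,000xg for 90 min, was quantified by TMTpro 16plex LC-MS/MS with equalised channel sums.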

nilotinib = compound: Cc1cn(-c2cc(NC(=O)c3ccc(C)c(Nc4nccc(-c5cccnc5)n4)c3)cc(C(F)(F)F)c2)cn1 [nilotinib]
In short: as §1

[1] = compound: Cc1nc(Nc2n[nH]c3c2CN(C(=O)N[C@H](CN(C)C)c2ccccc2)C3(C)C)c2sccc2n1
In short: as §1

dasatinib = compound: Cc1nc(Nc2ncc(C(=O)Nc3c(C)cccc3Cl)s2)cc(N2CCN(CCO)CC2)n1 [dasatinib]
In short: as §1

[2] = compound: Cc1ncc(-c2ccnc(Nc3ccc(S(C)(=O)=O)cc3)n2)n1C(C)C
In short: as §1

mubritinib = compound: FC(F)(F)c1ccc(/C=C/c2nc(COc3ccc(CCCCn4ccnn4)cc3)co2)cc1 [mubritinib]
In short: as §1

[3] = compound: NC1(c2ccc(-c3nc4ccn5c(=O)[nH]nc5c4cc3-c3ccccc3)cc2)CCC1
In short: as §1

[4] = compound: NCC(=O)Nc1ccc(-n2nc(C(F)(F)F)cc2-c2ccc3c(ccc4ccccc43)c2)cc1
In short: as §1

citarinostat = compound: O=C(CCCCCCNC(=O)c1cnc(N(c2ccccc2)c2ccccc2Cl)nc1)NO [citarinostat]
In short: as §1

silmitasertib = compound: O=C(O)c1ccc2c(c1)nc(Nc1cccc(Cl)c1)c1ccncc12 [silmitasertib]
In short: as §1

[5] = compound: O=C1NC(=O)C(c2cnc3ccccn23)=C1c1cn2c3c(cc(F)cc13)CN(C(=O)N1CCCCC1)CC2
In short: as §1

[6] = compound: c1cc(OCCN2CCCCC2)cc(-c2n[nH]c3ccc(-c4nnc[nH]4)cc23)c1
In short: as §1

[7] = compound: Cc1cccc(CC(=O)N2CCc3c2ccc(-c2cn(C)c4ncnc(N)c24)c3F)n1
In short: as §1

tipifarnib = compound: Cn1cncc1[C@@](N)(c1ccc(Cl)cc1)c1ccc2c(c1)c(-c1cccc(Cl)c1)cc(=O)n2C [tipifarnib]
In short: as §1

[8] = compound: NC(=O)Nc1cc(-c2cccc(F)c2)sc1C(=O)N[C@H]1CCCNC1
In short: as §1

[9] = compound: NC(=O)c1cnc(N[C@@H]2CCCC[C@@H]2N)nc1Nc1cccc(-n2nccn2)c1
In short: as §1

entinostat = compound: Nc1ccccc1NC(=O)c1ccc(CNC(=O)OCc2cccnc2)cc1 [entinostat]
In short: as §1

vorinostat = compound: O=C(CCCCCCC(=O)Nc1ccccc1)NO [vorinostat]
In short: as §1

[10] = compound: Cn1cc(-c2ccc3c(c2)CCN3C(=O)Cc2cccc(C(F)(F)F)c2)c2c(N)ncnc21
In short: as §1

[11] = compound: Cn1cc(-c2ccc3nnc(C(F)(F)c4ccc5ncccc5c4)n3n2)cn1
In short: as §1

Measured: log2 fold change

S100A16 (UniProt Q96FQ6)
inactive: bafetinib 0.11 | nilotinib -0.034 | [1] -0.148 | dasatinib -0.116 | [2] 0.022 | mubritinib -0.115 | [3] -0.012 | [4] -0.17 | citarinostat -0.122 | silmitasertib 0.086 | [5] -0.079 | [6] 0.51

SCGB2A2 (UniProt Q13296)
inactive: bafetinib 0.535 | [7] -0.205 | nilotinib -0.307 | [1] 0.161 | [2] -0.109 | tipifarnib -0.081 | mubritinib -0.296 | [8] 1.22 | [9] 0.505 | [3] -0.047 | [4] 0.536 | entinostat 0.448 | vorinostat 0.269 | citarinostat -0.126 | silmitasertib -0.189 | [5] 0.204 | [6] 0.464

SCAF4 (UniProt O95104)
inactive: bafetinib -0.121 | [7] -0.008 | nilotinib 0.017 | [1] -0.123 | dasatinib -0.131 | [2] 0.064 | [10] -0.126 | tipifarnib 0.183 | mubritinib 0.048 | [8] -0.017 | [9] 0.016 | [3] -0.196 | [4] -0.025 | entinostat -0.003 | vorinostat 0.028 | citarinostat -0.044 | silmitasertib 0.025 | [5] -0.044 | [6] -0.121

RTN3 isoform 5 (UniProt O95197)
inactive: bafetinib 0.048 | nilotinib -0.024 | [1] 0.07 | dasatinib -0.292 | [2] -0.084 | [10] 0.109 | [11] -0.04 | tipifarnib -0.353 | mubritinib -0.021 | [8] 0.134 | [9] -0.021 | [3] 0.047 | [4] 0.022 | entinostat -0.14 | citarinostat -0.212 | silmitasertib -0.15 | [5] 0.018 | [6] -0.072

SDHB, A0A087WWT1
inactive: bafetinib -0.116 | [7] -0.077 | dasatinib 0.1 | [10] 0.015 | [11] -0.03 | tipifarnib 0.178 | mubritinib 0.147 | [8] -0.135 | [9] -0.077 | [3] 0.102 | [4] 0.017 | entinostat -0.142 | vorinostat 0.018 | citarinostat -0.053 | silmitasertib -0.148 | [5] 0.085 | [6] 0.021

SDAD1 (UniProt Q9NVU7)
inactive: bafetinib 0.107 | [7] 0.01 | nilotinib -0.324 | [1] 0.463 | dasatinib 0.1 | [2] -0.197 | [10] -0.026 | [11] 0.016 | mubritinib -0.032 | [8] 0.009 | [9] 0.104 | [3] -0.111 | entinostat -0.03 | vorinostat 0.228 | citarinostat 0.033 | silmitasertib 0.035 | [5] -0.133 | [6] -0.103

SCGB1D2 (UniProt O95969)
inactive: bafetinib 0.639 | nilotinib -0.43 | [1] 0.337 | dasatinib 0.287 | [2] -0.113 | [10] 0.582 | [11] 0.326 | tipifarnib -0.348 | mubritinib -0.474 | [8] 1.25 | [9] 0.359 | [3] -0.027 | [4] 0.159 | entinostat 0.463 | citarinostat -0.084 | silmitasertib -0.142 | [5] 0.395 | [6] 0.57

SDHAF4 (UniProt Q5VUM1)
inactive: bafetinib -0.078 | nilotinib -0.043 | [1] -0.003 | dasatinib 0.034 | [2] 0.056 | [10] 0.077 | tipifarnib -0.041 | mubritinib 0.03 | [8] -0.016 | [9] 0.07 | [3] -0.111 | entinostat -0.021 | citarinostat 0.076 | silmitasertib 0.04 | [5] 0.005 | [6] 0.108

RRP7A (UniProt Q9Y3A4)
inactive: bafetinib -0.022 | nilotinib 0.109 | [1] -0.046 | [2] -0.261 | [10] -0.055 | [11] -0.12 | tipifarnib 0.092 | mubritinib -0.334 | [8] -0.031 | [9] -0.02 | [3] 0.241 | [4] -0.026 | entinostat -0.005 | citarinostat -0.129 | silmitasertib 0.124 | [5] 0.201 | [6] -0.048

S100A2 (UniProt P29034)
inactive: bafetinib 0.694 | nilotinib -0.16 | [1] 0.249 | dasatinib -0.119 | [2] -0.087 | [10] 0.094 | tipifarnib -0.072 | mubritinib 0.1 | [9] -0.043 | [3] 0.171 | [4] -0.149 | citarinostat 0.067 | silmitasertib -0.124 | [6] 0.138

SAE1 (UniProt M0R286)
inactive: bafetinib 0.124 | [10] -0.2 | [11] 0.139 | tipifarnib 0.383 | mubritinib 0.221 | [8] -0.087 | [3] -0.366 | [4] -0.399 | entinostat -0.171 | silmitasertib 0.504 | [5] -0.065

SAP30 (UniProt O75446)
inactive: [7] 0.076 | nilotinib 0.083 | [1] 0.01 | dasatinib -0.008 | [2] 0.006 | [10] -0.073 | tipifarnib 0.068 | mubritinib -0.118 | [8] 0.043 | [9] 0.032 | [3] 0.044 | [4] 0.287 | entinostat 0.165 | vorinostat 0.307 | silmitasertib 0.106 | [5] 0.047

RTL10 (UniProt Q7L3V2)
inactive: [7] -0.003 | dasatinib -0.139 | [10] 0.056 | [11] -0.169 | tipifarnib -0.114 | mubritinib -0.607 | [9] -0.187 | [3] 0.091 | [4] -0.134 | vorinostat 0.003 | silmitasertib -0.156 | [5] -0.124
